According to paper PMC7056711:
These are yes or no findings as the source states them, for the method shown. In cells and extracts the contact can be indirect. Some results given as binding are weak or reduced against the parent protein; the word gives no strength. For some assays here: Sequences can lack the tags named with a protein.

The chains behind the UniProt entries cited, without tags or fusion partners.
UniProt Q9Y5K6: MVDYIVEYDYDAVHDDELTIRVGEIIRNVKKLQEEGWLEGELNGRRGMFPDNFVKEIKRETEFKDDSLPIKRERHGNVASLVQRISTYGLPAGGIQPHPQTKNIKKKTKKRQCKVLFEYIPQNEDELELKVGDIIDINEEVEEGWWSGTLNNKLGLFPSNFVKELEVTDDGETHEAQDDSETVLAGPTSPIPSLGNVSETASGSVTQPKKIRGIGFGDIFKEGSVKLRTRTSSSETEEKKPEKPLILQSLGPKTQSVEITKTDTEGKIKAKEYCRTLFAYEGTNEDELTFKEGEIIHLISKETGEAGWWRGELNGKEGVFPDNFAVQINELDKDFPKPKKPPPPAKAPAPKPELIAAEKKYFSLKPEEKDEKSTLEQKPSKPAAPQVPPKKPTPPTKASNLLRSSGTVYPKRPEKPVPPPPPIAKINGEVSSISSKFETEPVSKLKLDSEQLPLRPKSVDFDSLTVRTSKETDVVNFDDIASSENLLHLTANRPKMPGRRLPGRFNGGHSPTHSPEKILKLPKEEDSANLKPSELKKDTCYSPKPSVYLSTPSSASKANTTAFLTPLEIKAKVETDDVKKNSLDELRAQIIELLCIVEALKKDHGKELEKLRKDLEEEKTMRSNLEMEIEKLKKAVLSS
UniProt Q01968: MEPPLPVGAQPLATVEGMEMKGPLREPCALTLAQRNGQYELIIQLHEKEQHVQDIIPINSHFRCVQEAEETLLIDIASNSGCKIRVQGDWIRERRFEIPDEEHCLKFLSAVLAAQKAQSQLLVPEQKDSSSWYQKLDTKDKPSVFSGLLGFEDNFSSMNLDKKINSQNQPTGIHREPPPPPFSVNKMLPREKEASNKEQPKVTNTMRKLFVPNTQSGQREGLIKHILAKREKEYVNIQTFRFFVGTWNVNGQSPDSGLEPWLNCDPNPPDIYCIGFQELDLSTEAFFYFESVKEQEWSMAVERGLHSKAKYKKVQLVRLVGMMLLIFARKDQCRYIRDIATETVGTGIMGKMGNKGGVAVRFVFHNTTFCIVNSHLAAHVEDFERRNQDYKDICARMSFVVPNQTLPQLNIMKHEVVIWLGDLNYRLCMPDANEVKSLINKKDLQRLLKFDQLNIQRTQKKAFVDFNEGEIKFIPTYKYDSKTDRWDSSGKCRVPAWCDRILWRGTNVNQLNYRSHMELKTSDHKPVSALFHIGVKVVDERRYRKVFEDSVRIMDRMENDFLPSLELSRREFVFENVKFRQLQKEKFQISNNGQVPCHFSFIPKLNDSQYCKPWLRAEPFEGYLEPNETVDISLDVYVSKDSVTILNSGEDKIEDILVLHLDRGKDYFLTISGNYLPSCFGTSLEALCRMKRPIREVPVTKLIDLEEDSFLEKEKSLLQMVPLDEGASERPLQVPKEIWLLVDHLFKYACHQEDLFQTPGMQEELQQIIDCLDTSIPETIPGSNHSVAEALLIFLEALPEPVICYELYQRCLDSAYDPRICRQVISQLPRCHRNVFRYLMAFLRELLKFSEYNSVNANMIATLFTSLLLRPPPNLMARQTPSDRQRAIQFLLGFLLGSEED

Tests used:
[1] = molecular target: T1, Glutathione S-transferase (GST)-tagged recombinant IPIP27A (UniProt Q8N4B1); test: pull-down; GST-IPIP27A coupled to glutathione-sepharose beads, incubated with fresh total cell lysate of podocytes at 4 °C for 3 h, immunoblot with anti-OCRL or anti-CD2AP; only the target purified
T1 sequence: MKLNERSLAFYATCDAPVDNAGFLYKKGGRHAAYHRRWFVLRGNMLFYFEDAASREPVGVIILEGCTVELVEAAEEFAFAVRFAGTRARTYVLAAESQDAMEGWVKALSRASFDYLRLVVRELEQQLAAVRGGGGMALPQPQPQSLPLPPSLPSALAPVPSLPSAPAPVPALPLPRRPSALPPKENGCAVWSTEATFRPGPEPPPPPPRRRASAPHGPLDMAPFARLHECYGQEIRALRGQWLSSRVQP

[2] = molecular target: CD2AP (human (endogenous in conditionally immortalised human podocytes)) (UniProt Q9Y5K6); test: co-IP; anti-OCRL or anti-CD2AP antibody on Protein-G Dynabeads, total cell lysate of cultured human podocytes (HMNT buffer: 20 mM HEPES pH 7.4, 5 mM MgCl2, 0.1 M NaCl, 0.5% Triton X-100), 4 °C for 4 h, immunoblot

**Q.** OCRL (from UniProt Q01968 1-901) was tested. Which binding [1] did it give?
**A.** The binding was “binds”.

**Q.** What about the binding [2] of the same substance?
**A.** Its binding is “binds”.
